Measured values taken from US20250049939A1, “NOVEL FLT3 ANTIBODIES AND ANTIBODY-DRUG-CONJUGATES BASED THEREON, THERAPEUTIC METHODS AND USES THEREOF IN COMBINATION WITH TYROSINE KINASE INHIBITORS” (TUBULIS GmbH, priority 2021, published 2025).
For at least one compound, name, drawing or mass did not settle the structure.

What was measured:
[1] = system: MOLM-13 cells; experiment: Cytotoxicity in MOLM-13, 96 h resazurin; type: cell-based, human; details: data not shown
Source text: (A) Correlation of MFI of CD64 cell surface expression and MFI of FLT3 cell surface expression of myeloid human cell lines measure in flow cytometry. Expression data presented in Supplementary FIGS. 4A and B. Black line indicates simple linear regression with error interval. r=Pearson correlation coefficient; r^2=Coefficient of determination; p=p value from two tailed test with confidence interval of 95%. MFI=mean fluorescence intensity. (B,C,E,F) Assessment of cytotoxicity of ADCs in different human cell lines. Viability was determined after 96h treatment with different concentrations of ADCs by resazurin fluorescence and normalized to untreated control. Dashed line indicates 100 ng/ml drug concentration. Mean±s.d. of n=3 biological replicates. […] Black line indicates simple linear regression with error interval. (E) Treatment of FLT3 positive human cell lines with IgG1-ADC.

[2] = system: FLT3 cell surface expression in MOLM-13 cells; experiment: FLT3 cell surface expression in MOLM-13 after kinase inhibitors, flow cytometry; type: cell-based, human; details: 6, 24, 48 and 72 h incubation
Procedure: Cells were analyzed in flow cytometry after treatment. Dotted line represents MFI ratio of untreated cells. Mean±s.d. of n=2 is depicted. […] Grey triangles indicate increasing drug concentrations. […] Mean±standard deviation is depicted.

[3] = system: MOLM-13 cells; details: low doses, 96 h
[4] = system: MOLM-13 xenograft; experiment: MOLM-13 xenograft in NSG mice, bioluminescence imaging; type: in vivo; details: 50 mg/kg; Q5W×3; per os

Compound | Cell viability of Molm13 cells [1] | FLT3 cell surface expression [2] | Cell viability, TKI as single drug [3] | Tumor growth, single agent [4]
Cc1nc(Nc2ncc(C(=O)Nc3c(C)cccc3Cl)s2)cc(N2CCN(CCO)CC2)n1 [Dasatinib] | does not affect cell viability of Molm13 cells even in high concentrations | does not induce a FLT3 cell surface upregulation | – | –
CO[C@@H]1[C@H](N(C)C(=O)c2ccccc2)C[C@H]2O[C@]1(C)n1c3ccccc3c3c4c(c5c6ccccc6n2c5c31)C(=O)NC4 [Midostaurin] | – | increase of FLT3 cell surface expression | no effect on cell viability at low doses | only led to modest growth delay
